Reference: patent publication US20110186299A1, “Low-Toxicity Biodegradable Corrosion Inhibitors” (priority 2008, published 2011)

How the values were obtained:
[1] = Rate of carbon dioxide corrosion by polarization resistance measurement; conditions: CO2-saturated two-phase medium (20% white spirit, 80% 1 g/l NaCl), 80° C., 25 ppm (volume/volume) of test compound at 50% by weight in monoethylene glycol
[2] = Rate of hydrogen sulphide corrosion by polarization resistance measurement; conditions: H2S-saturated two-phase medium (20% white spirit, 80% 1 g/l NaCl), 80° C., 25 ppm (volume/volume) of test compound at 50% by weight in monoethylene glycol

| Compound | Rcor (rate of corrosion) [1] | Rcor (rate of corrosion) [2] |
| --- | --- | --- |
| N-aminoethyl-2-heptadecenylimidazoline maleate [Example 2] | 0.05 mm/year | 0.02 mm/year |
| CCCCCCCCC=CCCCCCCCC1=NCCN1CCN [Imidazoline A, N-aminoethyl-2-heptadecenylimidazoline] | 0.04 mm/year | 0.04 mm/year |
